In all, about 52,000 sequences went through this assay and about 210 (0.4%) were called active.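 The calls were made as follows: active = gene whose silencing raises cell survival under the drug, median off-target-corrected z-score across its silencing RNAs 2 or more; inactive = the rest.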 The list shows a part of the results.

The nature of the assay: Resistance to Poly (ADP-Ribose) Polymerase inhibitor: Gene Identification via Genome-wide siRNA Screen. To be noted: mouse BRCA2 R2336H ES cells, olaparib, CellTiter-Glo viability; hits give high values. The procedure, abridged: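 Mouse BRCA2 R2336H ES cells were reverse-transfected with siRNA (20 nM final), treated at 48 h with 500 nM olaparib, and read by CellTiter-Glo after 72 h. Scores: MAD-based z per siRNA, median per gene, seed off-target correction.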
(In general: ATP-based viability assays read luminescence as a measure of living cells.)
Take GGCCGAAGUCCAAAAUCUCTT against Ranbp9: the z-score was inactive: 0.591.
Then CCUAGAUUCUGAAUUCGAATT against Pdzk8, with inactive: -0.107; and CGACCUCACAGUUGACUACTT against BC052066, with inactive: -1.28; and GGAAUACUGCAGUGGCAUCTT against Olfr850, with inactive: 1.32.
CGAAAAAGGGCUUUUAACUTT against Ndufs1: the z-score was inactive: 1.04.
As for GGGCUCGUAAAGAAAGAAGTT against Tsga14, the figure is inactive: -1.02; as for GGACUGUGACAUAUUCUUUTT against Zfp54, inactive: 1.02; as for GGAGGUGACUGUUCUUAGATT against Ccdc5, inactive: -0.81.
Then CGCUAUUUACCAGAGUGGGTT against Statip1, with inactive: -1.04.
As to CCCUAAUGUGUAAAUGCAATT against D3Ucla1, the z-score was inactive: -0.0426.
With CCGGCACUGCUUUUCUACUTT against Ltb4r2, the z-score is inactive: 0.676.
As for GGUGCAAAGGAUAACUCGGTT against Tfpt, the figure is inactive: 0.366; as for GGUCAUAUCAUUAGGUCUATT against Rod1, inactive: 0.09.
As to “GCUAGGUUGGAUAUAUAUGTT against 1110056A04Rik”, the z-score is inactive: -2.09.
As for GGUGUUCUGGGAAAUUAAATT against Cdca7, the figure is inactive: -0.111; as for CCAUUAUGAAGAAGCUGUUTT against BC003324, inactive: -0.0139; as for GUUCCCUACAAGUUCUUCCTT against Phox2a, inactive: 1.18.
As for GGACUUGAAGUAAAGUAUATT against Egfl5, the figure is inactive: 0.792.
GGAACAAAGUGUUUAAAACTT against Ptprj: the z-score was inactive: 0.744.
For CCAUUUCUAUUAACCACAATT against AU020939, the z-score was inactive: -0.712.
As for GAAGAUGUACAGAUUUUCCTT against Tomm22, the figure is inactive: -0.305; as for GGUGCUGAUCUUGAACUACTT against Slc22a6, inactive: 1.81.
Then GGCACUCCUCAAUAUAGAUTT against Elf1, with inactive: 0.275.
As to GGAGAGACGCGCUAUUAUATT against Bub1b, the z-score was inactive: 0.786.
Then AUUUCUGUAAGGCAAAUGUTT against Olfr970, with inactive: 0.643.
As for GGACUAAAUAGGUUUACCATT against Cart1, the figure is inactive: -0.668; as for GGAUGUCCUGGAAUAUGUGTT against Mrpl45, inactive: 0.656.
Turning to CCACAUUUCUAGUUGUUUATT against Olfr1151, the z-score was inactive: -0.538.
As for GGAAAAAAUCAGGAGAUCUTT against Fbxo34, the figure is inactive: 1.85; as for GGUUAAGACCUUAAACAGATT against Prlpa, inactive: -0.587; as for GCUACAGGAUAAGUCCAAUTT against Kpnb1, inactive: -2.94.
Consider “GGUUCAAACAGAGACUCCATT against 2210009G21Rik”, for which the z-score is inactive: -0.256.
For “GACUGAAACACUCAAAGCCTT against 4930503B16Rik”, the z-score was inactive: 0.306.
As for GGGAGAAAUCCAGAGGAGATT against Clecsf12, the figure is inactive: 0.322; as for GGAGGUUAUACCAACCUUUTT against Mcm4, inactive: -1.49.
For the sequence CCAUGUGCUGUGCACUACGTT against D4st1, the z-score was inactive: 1.84.
Consider CAUCCCGCAUUCCAGUUACTT against Rgs3, for which the z-score was inactive: -1.11.
For GGUGUUAAUGAGGACACUUTT against Slc25a22, the z-score is inactive: 1.94.
As for “CCACCUACCAAAGCAGAAGTT against 1700001M19Rik”, the figure is inactive: 0.616; as for “GGCUGACAAUGUUAAAAGUTT against 8430423A01Rik”, inactive: 0.372.
On to CGAUUAUGACCUGAUCAUATT against Serpinb13, for which the z-score was inactive: -0.55.
As for CGGCACCUUCUACACAUCATT against Sirt2, the figure is inactive: -1.15.
As for GCAAAUCAUACCUACCGGCTT against Cuzd1, the figure is inactive: 0.388; as for GGAAGUGUUUGAUGUUCUUTT against Gtf2ird1, inactive: -0.0573.
Turning to GAAAUCAUCCUGCCCAAAGTT against Vax1, the z-score is inactive: 0.607.
Consider GAAUAGAAGGGAAGAAAGUTT against Crb3, for which the z-score is inactive: -1.25.
As for ACUGUUUAAUCACUGUGGUTT against Olfr891, the z-score is inactive: 0.327.
As for GAGAGAGACAAUCCUGAAGTT against Klra22, the figure is inactive: -0.691; as for GCUCGUCAUUGAAAUAGUGTT against Igtp, inactive: 0.878.
GGAAGAAUCCUCCAUGGAGTT against Mrpl24: the z-score was inactive: 1.25.
Consider GGAGCAAUGUUGUCACAACTT against Fbln1, for which the z-score is inactive: -0.548.
Then GGAAAGGUGCUUUUCAAAATT against Nedd9, with inactive: 0.802; and GGUCGUAUAUAAUUUGAUGTT against Nnt, with inactive: 0.5; and GGGACUUGGGACUUGUGGATT against Saa4, with inactive: -0.393.
As for “GCCUGUUACUGACUAUAACTT against 4933407P14Rik”, the figure is inactive: 0.65; as for GCAAUGUAACCCUGAAAAUTT against Cd48, inactive: -0.909.
Regarding GCACACCUCUAGUGGACUUTT against Taf10, the z-score is inactive: -2.69.
Then CCUUGUAUGGAAUUUAAAGTT against Rbm6, with inactive: 1.45.
Then GGAAGUGUUAAAUCCUGCUTT against Rnaseh1, with inactive: -0.212; and GGAUUCUUCUUCCACUUUGTT against Fbxo46, with inactive: -0.681.
On to GGAAAGAAGAAGAGUCUAATT against Nucb2, for which the z-score is inactive: -0.592.
Then CCUAGCAAUGUAGUAUCUATT against Snap23, with inactive: -0.62; and CCAGGAGACCCAAUGUUGUTT against MGC91194, with inactive: -0.743; and GCUCUUAGAAUCAUCGUCCTT against Ctbp1, with inactive: 0.656.
Turning to GGUCAAGAGUGCAUUCAAATT against Olfr1445, the z-score was inactive: 0.529.
Then GGAUGGACCAAAGAGAUAUTT against Ldb1, with inactive: -0.346; and “GCUCUAUUCCGGUGGAUGUTT against 1110003P22Rik”, with inactive: 0.526; and GGUGAGAUCUCAAUGGAAATT against Mfap1, with inactive: -2.24.
Then GGACAUGGUUUAGGUUAGATT against Zxda, with inactive: 0.332; and GGCCACAGGUGGAAACUAUTT against Tubb4, with inactive: 0.675.
Then GCUCUUUAUAGGGUUCGGATT against GnT-IX, with inactive: 0.114; and GCUGCCUCUUUCUUUGCUUTT against Tm4sf11, with inactive: -0.233; and GGGAACCUGUUUUCUUUCUTT against Nudt3, with inactive: 0.0837.
Turning to GGAUGUUAAAAUUGCCCUGTT against Olfr909, the z-score is inactive: 0.276.
On to “GGUUGAGAACGAAAACCACTT against D5Ertd606e”, for which the z-score was inactive: -0.339.
Then GGUUAUUUUUAGCUUCAGUTT against Lrpprc, with inactive: -0.328.
In the case of GGACUAGAGAAAGUGUGCATT against Egf, the z-score was inactive: 0.977.
Take CUACUCACAGUUUUAUUCATT against Tas2r137: the z-score is inactive: 0.466.
For the sequence GGGCUUCCUUCAGAAGAGUTT against Slc38a3, the z-score was inactive: -0.196.
Then GGAACAUAUACUGGACAGATT against BC012278, with inactive: -1.01; and GGAGUGCGUCUUUGAGAAUTT against Fgf11, with inactive: -0.949.
As for “GGUUCAUCUCAUCUCAAGUTT against 4930538D17Rik”, the figure is inactive: 1.42.
With “GGUGGACUGUGAAAUAAAATT against 1300017K07Rik”, the z-score is inactive: 0.529.
For the sequence “GGCUAAAGGAAACUCACCUTT against 9030623N16Rik”, the z-score was inactive: -2.61.
Turning to “GGAUAGCUGCGUAUGCCUATT against 2400001E08Rik”, the z-score is inactive: 0.335.
Regarding “GCCAAGAAGAUGGAUCCGCTT against 6430526N21Rik”, the z-score was inactive: 0.767.
Turning to GCCCUGGUUCCUAACCAAUTT against Nudt12, the z-score is inactive: 0.0244.
As for GGACAAAACCUCAGUUGAUTT against Bves, the figure is inactive: -0.614; as for “GGUUGUCUGACACUGUACATT against 2610036N15Rik”, inactive: -0.834.
On to GGAAAUCUGAGUGUGCACUTT against Pcdhgb1, for which the z-score was inactive: 0.439.
In the case of GGUUCUAUGCUGAAGGUCATT against Lhfpl2, the z-score is inactive: 0.135.
Then GGAAAUCACCAUCCUUCGUTT against Map4k2, with inactive: 0.322; and CGGAACACCAAUAAGAGAATT against Hgd, with inactive: -1.09; and CCUAUGUAUCUCAUCGCUGTT against Sox11, with inactive: -0.329.
For the sequence “GGGCUUAACUAAAAGUAGUTT against 4921515J06Rik”, the z-score was inactive: 0.238.
Regarding CCAUAAACAAUCACUUGUATT against Ccnf, the z-score was inactive: -1.1.
Then “GGCGGACUUGGAUUACAGCTT against 4632411J06Rik”, with inactive: -0.149.
Then GGAUUGAAGAGCUUAACAATT against Mta1, with inactive: -2.06; and GGUUGAAUAGCACUGGGACTT against Slitrk5, with inactive: -0.448.
As for GCAAAUGGAUGCGCUAAGCTT against Scgf, the figure is inactive: 1.83.
Turning to CCGAGAUAUGAAUCAAAUUTT against Wars, the z-score was inactive: -2.61.
Then GGCAUAGGAGGAUUCUCUUTT against Slc15a4, with inactive: -0.282; and AUUUGGUUGCCUUACAACUTT against Olfr868, with inactive: -1.15.
With “GGCGCAACUCCAGAUACACTT against 4930511H11Rik”, the z-score is inactive: 1.1.

The values above are taken from PubChem BioAssay AID1347423 (Functional Genomics Laboratory (NCATS/FGL), 2020).
